The entries are a selection whose mix differs from that of the whole data set. At the low end of the ranking, values are background and their order means little.

Chains of the proteins cited; added tags and fusions are not shown. Lines headed by an entry give the natural chain unless they say otherwise; changes in a name come on top.
UniProt Q01892: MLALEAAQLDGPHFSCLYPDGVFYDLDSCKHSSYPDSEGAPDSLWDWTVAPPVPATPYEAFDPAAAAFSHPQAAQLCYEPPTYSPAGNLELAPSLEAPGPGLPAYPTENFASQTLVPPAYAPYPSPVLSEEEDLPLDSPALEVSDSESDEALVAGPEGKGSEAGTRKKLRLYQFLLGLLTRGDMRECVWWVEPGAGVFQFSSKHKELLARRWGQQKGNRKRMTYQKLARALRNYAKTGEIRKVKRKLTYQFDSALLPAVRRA
UniProt P41161: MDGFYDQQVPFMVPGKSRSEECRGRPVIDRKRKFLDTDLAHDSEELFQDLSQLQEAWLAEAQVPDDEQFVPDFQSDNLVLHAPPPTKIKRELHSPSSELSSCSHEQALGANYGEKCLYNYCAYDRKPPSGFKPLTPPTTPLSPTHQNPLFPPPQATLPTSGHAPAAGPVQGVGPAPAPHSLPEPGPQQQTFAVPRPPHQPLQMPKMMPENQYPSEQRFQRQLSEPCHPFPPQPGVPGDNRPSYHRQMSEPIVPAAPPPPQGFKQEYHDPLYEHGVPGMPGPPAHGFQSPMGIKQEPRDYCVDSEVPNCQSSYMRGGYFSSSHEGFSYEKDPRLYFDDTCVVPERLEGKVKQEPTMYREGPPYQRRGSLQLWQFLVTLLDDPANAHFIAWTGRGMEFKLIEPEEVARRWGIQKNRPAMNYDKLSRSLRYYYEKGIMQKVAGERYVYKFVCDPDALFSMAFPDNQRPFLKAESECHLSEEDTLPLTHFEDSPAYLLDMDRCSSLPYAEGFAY
UniProt Q99607: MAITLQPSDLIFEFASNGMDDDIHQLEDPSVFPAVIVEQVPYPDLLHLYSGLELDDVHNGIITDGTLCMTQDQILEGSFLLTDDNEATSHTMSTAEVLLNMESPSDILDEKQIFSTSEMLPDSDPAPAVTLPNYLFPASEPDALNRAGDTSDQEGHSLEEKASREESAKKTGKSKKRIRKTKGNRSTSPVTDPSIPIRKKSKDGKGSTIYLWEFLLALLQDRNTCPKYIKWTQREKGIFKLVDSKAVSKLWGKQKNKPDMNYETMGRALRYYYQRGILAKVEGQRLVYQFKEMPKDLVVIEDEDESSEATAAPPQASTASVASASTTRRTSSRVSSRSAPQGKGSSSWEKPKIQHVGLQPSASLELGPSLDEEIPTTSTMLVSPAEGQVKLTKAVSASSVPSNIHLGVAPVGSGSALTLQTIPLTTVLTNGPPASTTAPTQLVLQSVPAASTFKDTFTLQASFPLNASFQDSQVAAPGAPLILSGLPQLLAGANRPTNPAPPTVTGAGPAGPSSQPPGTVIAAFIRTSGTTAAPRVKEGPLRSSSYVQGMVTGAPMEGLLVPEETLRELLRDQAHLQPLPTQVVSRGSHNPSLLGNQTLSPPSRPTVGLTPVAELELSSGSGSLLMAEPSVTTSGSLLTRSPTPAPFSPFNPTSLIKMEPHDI

Consider 25 sequences from article PMC7862700.

Targets include SPIB (UniProt Q01892); ETV5 (UniProt P41161); ELF4 (UniProt Q99607).
Holding throughout (assay): DAPPL (digital affinity profiling via proximity ligation, sequencing)
Common to all, as to conditions: 10 mM Tris-HCl pH 7.5, 50 mM NaCl, 1 mM DTT, 4% glycerol, room temperature, 30 min; GST-TFs on glutathione beads, 16-mer random dsDNA library, 0.1% …; high values mean tight binding; double strand, one strand shown; scale: fold enrichment (6-mer frequency, TF over GST control)

Another assay addresses T1, FLI1 (UniProt Q01543).
T1 sequence: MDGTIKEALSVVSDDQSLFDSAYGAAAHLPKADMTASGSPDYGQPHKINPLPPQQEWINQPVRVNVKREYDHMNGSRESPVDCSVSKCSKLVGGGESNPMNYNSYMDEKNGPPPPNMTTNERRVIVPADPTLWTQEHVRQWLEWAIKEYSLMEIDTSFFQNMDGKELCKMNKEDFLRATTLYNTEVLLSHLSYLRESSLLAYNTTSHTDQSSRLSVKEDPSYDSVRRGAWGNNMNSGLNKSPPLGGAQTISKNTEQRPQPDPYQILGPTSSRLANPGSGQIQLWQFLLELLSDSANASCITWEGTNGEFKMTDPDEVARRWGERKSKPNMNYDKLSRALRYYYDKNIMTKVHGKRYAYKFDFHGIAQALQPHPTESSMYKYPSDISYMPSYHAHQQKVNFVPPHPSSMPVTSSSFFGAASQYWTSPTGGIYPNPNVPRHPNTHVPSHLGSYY

A further assay addresses T2, EHF (UniProt Q9NZC4).
T2 sequence: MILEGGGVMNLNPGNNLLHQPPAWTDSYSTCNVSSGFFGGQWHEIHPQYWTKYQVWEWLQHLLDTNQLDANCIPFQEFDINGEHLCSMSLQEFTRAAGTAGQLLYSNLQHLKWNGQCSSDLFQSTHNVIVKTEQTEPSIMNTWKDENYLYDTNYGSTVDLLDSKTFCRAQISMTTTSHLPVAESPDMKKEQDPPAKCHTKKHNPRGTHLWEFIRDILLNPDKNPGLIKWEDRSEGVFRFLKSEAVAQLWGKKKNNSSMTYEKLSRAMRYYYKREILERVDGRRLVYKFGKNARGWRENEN

For another assay, the target named is T3, ETV2 (UniProt O00321).
T3 sequence: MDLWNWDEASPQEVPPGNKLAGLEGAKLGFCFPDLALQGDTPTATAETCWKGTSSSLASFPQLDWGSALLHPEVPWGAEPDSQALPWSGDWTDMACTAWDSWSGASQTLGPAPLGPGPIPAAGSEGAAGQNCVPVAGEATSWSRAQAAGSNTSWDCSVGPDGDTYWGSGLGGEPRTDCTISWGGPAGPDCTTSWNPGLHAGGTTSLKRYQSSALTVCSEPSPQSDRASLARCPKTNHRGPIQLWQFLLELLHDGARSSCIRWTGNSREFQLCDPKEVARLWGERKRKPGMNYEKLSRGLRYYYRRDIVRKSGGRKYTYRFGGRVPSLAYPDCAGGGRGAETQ

A further assay has as its target T4, ETV3L (UniProt Q6ZN32).
T4 sequence: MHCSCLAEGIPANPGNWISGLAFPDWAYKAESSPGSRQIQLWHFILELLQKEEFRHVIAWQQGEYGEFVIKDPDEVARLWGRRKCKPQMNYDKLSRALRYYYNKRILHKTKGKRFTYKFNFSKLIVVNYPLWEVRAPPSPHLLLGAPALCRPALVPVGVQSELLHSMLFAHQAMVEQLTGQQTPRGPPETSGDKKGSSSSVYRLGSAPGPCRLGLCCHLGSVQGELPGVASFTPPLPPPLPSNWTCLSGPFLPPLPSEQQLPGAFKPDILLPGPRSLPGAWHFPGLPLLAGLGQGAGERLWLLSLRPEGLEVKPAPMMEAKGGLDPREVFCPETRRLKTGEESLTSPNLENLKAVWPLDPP

Regarding ACGAAG, the binding signal was found to be 0.909 with FLI1; 0.928 in the assay with EHF; 0.855 in the assay with SPIB; 1 with ETV5; 1.01 with ELF4; 0.954 in the assay with ETV2.

As for CATCGT, the binding signal with FLI1 was found to be 0.892; in the assay with ETV5, 0.926; with ELF4, 0.962; in the assay with ETV3L, 0.931.

GCCCTG: the binding signal with FLI1 was 0.987; with EHF it was 0.958; with ETV5, 0.998; with ELF4, 0.977; with ETV2 it was 1.

TGATCA: the binding signal in the assay with FLI1 was found to be 1.04; in the assay with SPIB, 0.98; with ETV5 it was 1.02; in the assay with ELF4, 1.1; in the assay with ETV2, 1.1.

With GATCAT, the binding signal with FLI1 stood at 0.954; in the assay with EHF it was 0.979; with SPIB, 0.963; with ETV5, 0.932; with ELF4, 0.992; with ETV2, 0.992.

For CACCTG, the binding signal was 0.933 with FLI1; 0.974 with EHF; 0.959 with ETV5; 1.08 with ELF4; 0.998 with ETV2.

Turning to CGAAGG, the binding signal in the assay with FLI1 came out at 0.911; in the assay with SPIB it was 0.966; in the assay with ETV5, 1.05; with ELF4, 0.916; with ETV2, 0.857; with ETV3L, 0.994.

Regarding GGCGTT, the binding signal with FLI1 was found to be 0.982; with EHF it was 0.898; with ETV5 it was 0.918; in the assay with ELF4, 0.878; with ETV2 it was 1.13.

Regarding ATTAGT, the binding signal with FLI1 came out at 0.971; in the assay with EHF it was 1; in the assay with SPIB, 0.917; with ETV5 it was 0.974; with ELF4 it was 1.06; with ETV2 it was 1.12.

As for GGATTC, the binding signal came to 0.893 with FLI1; 0.935 in the assay with EHF; 0.875 with SPIB; 0.936 with ETV5; 0.966 with ELF4; 0.82 with ETV2.

For GTTGCC, the binding signal in the assay with FLI1 was 0.866; with EHF it was 0.875; with SPIB it was 0.937; with ETV5 it was 0.884; with ELF4, 0.938; with ETV2, 0.819.

For TCCAGC, the binding signal in the assay with FLI1 was found to be 0.976; with SPIB it was 0.948; in the assay with ETV5, 0.972; in the assay with ELF4 it was 0.964; in the assay with ETV2 it was 0.949; with ETV3L, 0.993.

For TCGCAT, the binding signal in the assay with FLI1 is 0.979; with EHF, 0.975; in the assay with ETV5, 0.95; with ELF4 it was 0.994; in the assay with ETV2, 0.977.

Turning to ACGCGT, the binding signal with FLI1 stood at 0.983; with EHF, 0.869; with ETV5 it was 0.875; with ELF4, 0.964; with ETV2 it was 0.836.

Consider ACTAGA, for which the binding signal with FLI1 was determined as 0.822; with SPIB, 0.957; with ETV5, 0.901; in the assay with ELF4, 0.96; with ETV2, 0.978; with ETV3L it was 0.971.

With TGTCGC, the binding signal with FLI1 amounted to 0.858; in the assay with SPIB it was 0.844; with ETV5 it was 0.983; in the assay with ELF4, 0.929; with ETV2, 0.804; with ETV3L it was 0.924.

CCGAAC: the binding signal with FLI1 turned out to be 1.26; in the assay with SPIB it was 1.2; with ETV5, 1.27; in the assay with ELF4, 1.26; in the assay with ETV2, 1.36.

Consider GGTTAC, for which the binding signal with FLI1 came to 0.988; in the assay with EHF it was 0.97; with SPIB, 0.995; in the assay with ETV5 it was 0.951; in the assay with ELF4, 0.987; with ETV2, 0.944.

On to AGGATT, for which the binding signal with FLI1 is 0.975; with EHF, 0.939; with SPIB it was 0.916; with ETV5, 0.956; with ELF4, 0.94; in the assay with ETV2 it was 0.96.

Take AGCATG: the binding signal with FLI1 was 0.996; with EHF it was 0.885; with SPIB, 0.927; in the assay with ETV5, 0.963; with ELF4, 0.992; in the assay with ETV2, 0.834.

Take CTAGAC: the binding signal turned out to be 0.905 with FLI1; 0.98 in the assay with SPIB; 0.871 with ETV5; 0.957 with ELF4; 0.791 in the assay with ETV2; 0.94 with ETV3L.

TTAGGC: the binding signal in the assay with FLI1 was 0.915; with EHF it was 0.928; with SPIB it was 0.939; with ETV5, 0.988; with ELF4, 0.986; with ETV2 it was 0.918.

With TCGAGT, the binding signal was 0.942 with FLI1; 0.895 in the assay with EHF; 0.909 in the assay with SPIB; 0.914 with ETV5; 0.913 with ELF4; 0.908 with ETV2.

On to CTAGGA, for which the binding signal in the assay with FLI1 is 0.876; with SPIB it was 0.926; with ETV5, 0.932; with ELF4, 0.957; in the assay with ETV2, 0.993; with ETV3L it was 0.979.

As to GCGATC, the binding signal worked out at 0.951 in the assay with FLI1; 0.973 with EHF; 0.93 with SPIB; 0.925 in the assay with ETV5; 0.992 with ELF4; 0.965 in the assay with ETV2.
